Experimental data from PubChem BioAssay AID1347076 (National Center for Advancing Translational Sciences (NCATS), 2019).
The whole screen tested about 400,000 compounds, of which about 13,000 (3.2%) were called active. The inconclusive results got no clear call from the source; some entries with a clear call stand among them for comparison. Calls follow the shape of the dose curve; as a rule, active = well fitted cell-killing curve with a large enough effect; inconclusive = small, poorly fitted or top-dose-only effect, or effect the other way; inactive = flat fitted curve, though single readings scatter. A potency beside an inconclusive call is a rough fit, not a confirmed value.

Experiment: qHTS assay for MDR1-selective chemotherapeutics: Primary screen using the drug-selected MDR subline cells KB-V1; also: nearly all actives have a fitted effect of over 60% in size
Conditions: KB-V1 MDR cells viability, CellTiter-Glo, 72 h; activity change, negative = cytotoxicity: at 46.1 µM (top of the series)
Method in brief: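 KB-V1, DMEM (no phenol red) + 10% FBS; cpd pin-transferred, titration series; 72 h, 37 degrees C; CellTiter-Glo, luminescence. Data normalized, curve-fit.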
% is scaled to controls: 0 for no effect and ±100 for the full control effect; potency is read from the fitted curve at half-maximal effect.

Row | SMILES | Potency | activity change, negative = cytotoxicity
1 | CC(=O)N1CC(C)Sc2ccc(S(=O)(=O)N3CCCCC3)cc21 (stereo not given) | inconclusive: 16.4 µM [cytotoxic, single point] | –
2 | CCC1(C(=O)O)NC(c2cc(OC)ccc2O)C2C(=O)N(Cc3ccccc3)C(=O)C21 (stereo not given) | inconclusive: 0.206 µM [rising, full curve, poor fit] | –
3 | COCCn1c(SCC(=O)Nc2ccc(F)cc2F)nc2c(c1=O)SCC2 | inconclusive: 7.31 µM [cytotoxic, partial curve] | –
4 | CCc1ccc(NC(=O)CSc2nc3ccccc3c(=O)n2CCN2CCOCC2)cc1 | active: 8.2 µM | –
5 | Cn1c(SCC(=O)c2ccc(F)cc2)nnc1-c1ccccc1Br | active: 23.1 µM | –
6 | COc1ccc(C)cc1NC(=O)CSc1ccc(-c2ccccn2)nn1 | inconclusive: 2.31 µM [cytotoxic, full curve] | –
7 | Cc1ccc(/C=C2/SC(=S)N(CCCC(=O)Nc3ccc(O)cc3)C2=O)cc1 | inconclusive: 32.6 µM [cytotoxic, single point] | –
8 | CCOc1ccc(C(C)=O)cc1N1C(=O)C2C(C1=O)C1C=CC2C12CC2 (stereo not given) | inconclusive: 16.4 µM [cytotoxic, partial curve] | –
9 | O=C(NC(=S)NCCOCc1ccc(Cl)cc1)c1cccnc1 | – | inconclusive: 38.8%
10 | Cc1cccc(NC(=O)c2oc3ccccc3c2NC(=O)c2cc(=O)c3cc(Cl)ccc3o2)c1 | inconclusive: 20.6 µM [rising, partial curve, poor fit] | –
11 | CCOc1ccc(NS(=O)(=O)c2cc(OC)ccc2OC)cc1 | inconclusive: 14.6 µM [cytotoxic, single point] | –
12 | COc1ccccc1Cn1c(CCCO)nc2ccccc21 | inconclusive: 20.6 µM [cytotoxic, single point] | –
13 | Cc1cccc(/C=C/c2onc(C)c2[N+](=O)[O-])n1 | inconclusive: 16.4 µM [cytotoxic, single point] | –
14 | C/C(=N\NC(=O)c1ccccc1C)c1ccc(NC(=O)c2cccs2)cc1 | active: 5.8 µM | –
15 | COc1ccc(CCC(=O)N/N=C(\C)c2ccc3c(c2)OCO3)cc1 | inactive | –
16 | Cc1noc(C)c1CSCC(=O)Nc1cc(C(F)(F)F)ccc1N1CCOCC1 | active: 3.66 µM | –
17 | CN(C)S(=O)(=O)N1CCC(Oc2ccc(C(=O)N3CCCCCC3)cc2)CC1 | inconclusive: 18.4 µM [cytotoxic, partial curve] | –
18 | COc1cc(C2C3=C(COC3=O)OC(C)(C)Oc3cc4c(cc32)OCO4)cc(OC)c1OC (stereo not given) | active: 3.66 µM | –
19 | COc1ccccc1-c1nn2c(C(F)(F)F)nnc2s1 | active: 7.31 µM | –
20 | CCc1nn(C(C)C(=O)NC2CCCCCC2)c(=O)c2cc3occc3n12 (stereo not given) | inconclusive: 9.2 µM [cytotoxic, partial curve, poor fit] | –
21 | CCOC(=O)C1C(C(=O)Nc2cccc(C(F)(F)F)c2)C1C(=O)NC(C)C (stereo not given) | inactive | –
22 | CC(C)(C)N(Cc1ccccc1)C(=O)COC(=O)c1ccc(N2CCCC2=O)cc1 | inactive | –
23 | COc1ccc2c(c1)[nH]c1c(N3CCSCC3)ncnc12 | inconclusive: 18.4 µM [cytotoxic, single point] | –

Row | SMILES | Potency | activity change, negative = cytotoxicity
24 | CCN(Cc1ccncc1)Cc1nc(CC2CC2)no1 | inactive | –
25 | OCc1ccc(O)c2ncccc12 | inconclusive: 32.6 µM [cytotoxic, single point] | –
26 | CC(=O)Nc1cc(-c2ccccc2)nn1Cc1ccc(Cl)cc1 | inconclusive: 20.6 µM [cytotoxic, single point] | –
27 | CCOC(=O)Nc1ccc2c(c1)ncn2C1CCCCC1 | active: 18.4 µM | –
28 | N#CCSc1ccc(-c2nc3ccccc3[nH]2)cn1 | inconclusive: 18.4 µM [cytotoxic, single point] | –
29 | Cn1nc(C(F)(F)F)c(/C=N/OC(=O)c2ccccc2Cl)c1SCc1ccc(Cl)cc1 | inconclusive: 29.1 µM [cytotoxic, single point] | –
30 | O=C(CCSc1nnc2ccccn12)Nc1ccc(F)cc1 | inconclusive: 18.4 µM [cytotoxic, single point] | –
31 | Cc1ccnc(NC(=S)N2CCN(c3ccc(Cl)cc3)CC2)c1 | inactive | –
32 | Cc1[nH]c2ccccc2c1C(=O)CSc1ccccn1 | inconclusive: 18.4 µM [cytotoxic, single point] | –
33 | COc1ccc(-c2nnc(N3CCCCC3)c3ccccc23)cc1 | active: 11.6 µM | –
34 | CC(=O)C1(C)C(=O)N(c2ccc(F)cc2)C(=O)N1c1ccc(F)cc1 (stereo not given) | inconclusive: 20.6 µM [cytotoxic, single point] | –
35 | CCCCN(c1nc2ccccc2nc1Cl)S(=O)(=O)c1ccc(C)cc1 | inconclusive: 20.6 µM [cytotoxic, partial curve] | –
36 | COc1cccc(CNC(=O)CSc2ncc(S(=O)(=O)c3ccc(Br)cc3)c(=O)[nH]2)c1 | inconclusive: 14.6 µM [rising, partial curve] | –
37 | COC(=O)C1=C(C)NC(C)=C(C(=O)OC)C1c1ccc(C)o1 | inactive | –
38 | Cc1ccc(-c2nnc(Nc3ccc(Cl)c(Cl)c3)c3ccccc23)cc1S(=O)(=O)NCCO | inconclusive: 13 µM [cytotoxic, partial curve] | –
39 | Cc1ccc(/C=N/NC(=O)C2=NNC(c3ccccc3)(c3ccccc3)C2)c(O)c1 | inconclusive: 3.26 µM [cytotoxic, full curve, poor fit] | –
40 | COc1ccc(/C=C/C(=O)NC2CCCCCCC2)cc1S(=O)(=O)N1CCOCC1 | active: 23.1 µM | –
41 | Cc1cc(C)n(-c2nc3ccccc3c(=O)n2OCC#N)n1 | inconclusive: 1.84 µM [cytotoxic, partial curve, poor fit] | –
42 | O=C(CN(C(=O)c1csnn1)c1cccc2ccccc12)NCc1ccccc1 | inconclusive: 18.4 µM [cytotoxic, single point] | –
43 | COc1ccccc1CNC(=O)COC(=O)c1cccnc1SCC(=O)NCc1ccccc1OC | inconclusive: 13 µM [cytotoxic, single point] | –
44 | Cc1ccc(NC(=O)/C(=C/c2cccc([N+](=O)[O-])c2)NC(=O)C2CCCCC2)c(C)c1 | inactive | –
45 | Cc1ccc(NC(=O)C2CCCN2S(=O)(=O)c2cccc3nsnc23)cc1Cl (stereo not given) | inconclusive: 16.4 µM [cytotoxic, partial curve] | –

Laid out differently: entries from further up.

| Row | SMILES | Potency | activity change, negative = cytotoxicity |
| --- | --- | --- | --- |
| 26 | CC(=O)Nc1cc(-c2ccccc2)nn1Cc1ccc(Cl)cc1 | inconclusive: 20.6 µM [cytotoxic, single point] | – |
| 27 | CCOC(=O)Nc1ccc2c(c1)ncn2C1CCCCC1 | active: 18.4 µM | – |
| 28 | N#CCSc1ccc(-c2nc3ccccc3[nH]2)cn1 | inconclusive: 18.4 µM [cytotoxic, single point] | – |
| 29 | Cn1nc(C(F)(F)F)c(/C=N/OC(=O)c2ccccc2Cl)c1SCc1ccc(Cl)cc1 | inconclusive: 29.1 µM [cytotoxic, single point] | – |
| 30 | O=C(CCSc1nnc2ccccn12)Nc1ccc(F)cc1 | inconclusive: 18.4 µM [cytotoxic, single point] | – |
| 31 | Cc1ccnc(NC(=S)N2CCN(c3ccc(Cl)cc3)CC2)c1 | inactive | – |
| 32 | Cc1[nH]c2ccccc2c1C(=O)CSc1ccccn1 | inconclusive: 18.4 µM [cytotoxic, single point] | – |
| 33 | COc1ccc(-c2nnc(N3CCCCC3)c3ccccc23)cc1 | active: 11.6 µM | – |
| 34 | CC(=O)C1(C)C(=O)N(c2ccc(F)cc2)C(=O)N1c1ccc(F)cc1 (stereo not given) | inconclusive: 20.6 µM [cytotoxic, single point] | – |
| 35 | CCCCN(c1nc2ccccc2nc1Cl)S(=O)(=O)c1ccc(C)cc1 | inconclusive: 20.6 µM [cytotoxic, partial curve] | – |
| 36 | COc1cccc(CNC(=O)CSc2ncc(S(=O)(=O)c3ccc(Br)cc3)c(=O)[nH]2)c1 | inconclusive: 14.6 µM [rising, partial curve] | – |
| 37 | COC(=O)C1=C(C)NC(C)=C(C(=O)OC)C1c1ccc(C)o1 | inactive | – |
| 38 | Cc1ccc(-c2nnc(Nc3ccc(Cl)c(Cl)c3)c3ccccc23)cc1S(=O)(=O)NCCO | inconclusive: 13 µM [cytotoxic, partial curve] | – |
